Results published in patent US8101647B2, “Spiro-oxindole compounds and their use as therapeutic agents” (Xenon Pharmaceuticals Inc., priority 2008, dated 2012).

Sequences of proteins named here, by UniProt entry; tags and fusion partners are left off.
UniProt P10635, whole entry: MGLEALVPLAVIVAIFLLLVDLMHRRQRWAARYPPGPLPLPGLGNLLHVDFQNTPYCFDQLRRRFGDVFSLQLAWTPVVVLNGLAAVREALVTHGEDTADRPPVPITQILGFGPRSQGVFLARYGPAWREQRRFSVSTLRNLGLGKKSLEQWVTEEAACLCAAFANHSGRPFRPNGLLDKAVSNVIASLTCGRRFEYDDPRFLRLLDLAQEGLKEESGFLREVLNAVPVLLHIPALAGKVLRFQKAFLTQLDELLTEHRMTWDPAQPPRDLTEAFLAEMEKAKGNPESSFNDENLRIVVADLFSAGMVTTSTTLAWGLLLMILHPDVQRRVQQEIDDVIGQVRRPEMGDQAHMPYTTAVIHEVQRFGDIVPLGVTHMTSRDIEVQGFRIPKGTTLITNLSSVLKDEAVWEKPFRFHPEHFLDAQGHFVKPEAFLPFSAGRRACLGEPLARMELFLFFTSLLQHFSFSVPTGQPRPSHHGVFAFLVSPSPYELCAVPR

Target: CYP2D6 (Homo sapiens, UniProt P10635)
Source text: Each family consists of one or more subfamilies and each subfamily contains one or more specific CYP isoforms. […] The assay is based on the CYP inhibition kit described by Vivid CYP450 Screening Kit Protocol, 2005, Invitrogen Corporation (Invitrogen Corporation, 1600 Faraday Avenue, Carlsbad, Calif. 92008, USA).
This assay is designed to assess compounds by quantifying the inhibition of the predominant human CYP isozymes involved in hepatic drug metabolism.
This assay can be used for single concentration screening or for IC50 determination. In a single concentration screening assay, the final assay concentration of the test compound is 10 μM. In an IC50 determination assay, IC50 may be determined using a 3, 6, or 12 point curve in triplicate with a chosen starting concentration diluted serially.

SMILES: C=C[C@H]1C[N@@]2CC[C@H]1C[C@@H]2[C@@H](O)c1ccnc2ccc(OC)cc12 [Quinidine]
- % Inhibition in 10 μM assay: 55 +/− 15%
